Results: PubChem BioAssay AID504467 (National Center for Advancing Translational Sciences (NCATS), 2011)
Among all 330,000 compounds or so, about 7,700 (2.3%) were called active. The shares of active, inactive and inconclusive entries below differ from those in the screen. The call rests on the fitted dose curve; in most records, active means well fitted inhibition curve with a large enough effect; inconclusive means small, poorly fitted or top-dose-only effect, or effect the other way; inactive means flat fitted curve, though single readings scatter. Where the call is inconclusive, the potency comes from a doubtful curve fit. Non-standard residues stand in square brackets, D forms with d. Residues, ends and D or L forms follow the SMILES beside them. *: point of attachment. NMeV = CN[C@H](C(=O)O)C(C)C; X3 = C#CCCC/C(=C\C(=O)*)OC

Assay: qHTS screen for small molecules that inhibit ELG1-dependent DNA repair in human embryonic kidney (HEK293T) cells expressing luciferase-tagged ELG1; further: nearly all actives have a fitted effect of over 55% in size
Conditions: HEK293T ELG1-luciferase reporter, luminescence, 16 h, DNA damage induced by 5-fluorouridine; series mostly up to 46.1 µM
Summary of the method: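 Reporter activity after DNA damage by 5-fluorouridine is monitored. Compound-treated cells incubate 16 hr at 37 °C, then ONE-Glo is added for 30 min before luminescence reading.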
Potency means the concentration at half of the fitted maximal effect.

Row | SMILES | Potency
1 | Cc1ccc(C(=O)c2cn[nH]c2-c2ccccc2O)cc1 | inconclusive: 20.6 µM [activator, partial curve, poor fit]
2 | Cc1ccc(S(=O)(=O)Nc2cccc(-c3ccc(N4CCCCCC4)nn3)c2)c(C)c1 | inconclusive: 2.91 µM [activator, single point]
3 | CN(C)c1ccnc2sc(C(=O)NCc3ccccc3)c(N)c12 | inconclusive: 23.1 µM [inhibitor, single point]
4 | Cc1ccc(NC(=O)c2ncn(CC(=O)NCc3ccccc3)n2)cc1C | inconclusive: 18.3 µM [activator, partial curve]
5 | Cc1ccccc1OCc1nc2ccccc2c(=O)n1N | inconclusive: 18.4 µM [activator, partial curve]
6 | COc1ccccc1N1CCN(C(=O)c2cc3c(s2)-c2ccccc2OC3)CC1 | active: 20.6 µM
7 | CCc1cccc(CC)c1NC(=O)COC(=O)Cc1ccsc1 | inconclusive: 25.9 µM [activator, partial curve, poor fit]
8 | COc1ccc(-c2cc(=O)oc3c(C)c(OCC(=O)NCCCn4ccnc4)ccc23)cc1 | inconclusive: 0.73 µM [inhibitor, partial curve]
9 | Cc1ccc(C)c(N2CCN(CC3CC=CCC3)CC2)c1 (stereo unspecified) | inactive
10 | OCC(O)CSc1nc(-c2ccccc2)nc2c1CCC2 (stereo unspecified) | inconclusive: 16.4 µM [inhibitor, partial curve]
11 | Cc1cccc(OCCn2cnc(Cl)c2Cl)c1 | inconclusive: 20.6 µM [activator, single point]
12 | COc1ccccc1-c1cc2ccccc2[nH]1 | inconclusive: 14.6 µM [activator, partial curve]
13 | C#CCCC/C(=C\C(=O)N(C)[C@H](C(=O)N(C)[C@H](C(=O)N(C)[C@H](C(=O)N(C)[C@H](C(N)=O)C(C)C)C(C)C)C(C)C)C(C)C)OC (X3-[NMeV][NMeV][NMeV][NMeV]-NH2) | inconclusive: 29.1 µM [inhibitor, single point]
14 | COC(=O)c1c(-c2ccc(SC)cc2)sc2ccc(OC)cc12 | inconclusive: 7.3 µM [activator, partial curve]
15 | Cc1ccccc1C(=O)N1CCC(C(=O)Nc2cc(C(F)(F)F)ccc2N2CCCC2)CC1 | inactive
16 | CC(=O)OCc1nc2ccccc2s1 | inconclusive: 8.91 µM [activator, partial curve, poor fit]
17 | Cc1nc(SCC(=O)Nc2cccc(Cl)c2)n[nH]1 | inactive
18 | Cc1nn(C)cc1C1Nc2ccccc2C(=O)N1O (stereo unspecified) | inactive
19 | Cc1ccc(CN2CCC(C(=O)Nc3ccc(Oc4cccnc4)cc3)CC2)cc1 | inconclusive: 23.1 µM [inhibitor, partial curve]
20 | CC1(C)C=Cc2cc3ccc(=O)oc3cc2O1 | inconclusive: 23.1 µM [activator, partial curve]
21 | O=C1CC(Cc2ccc(Cl)cc2)C(=O)N1c1ccncc1 (stereo unspecified) | inconclusive: 29.1 µM [activator, partial curve, poor fit]
22 | Cc1ccc(CNC(=O)NCc2ccccc2)cc1 | inconclusive: 29.1 µM [activator, single point]
23 | COC(=O)Nc1nnc(-c2ccco2)s1 | inconclusive: 23.1 µM [activator, single point]
24 | Cc1cc(C)c(-c2csc(NC(=O)C3=COCCO3)n2)cc1C | inconclusive: 18.3 µM [activator, partial curve]

Row | SMILES | Potency
25 | Cc1cc(C(=O)CSc2nnc(-c3ccncc3)n2-c2ccccc2)c(C)n1C | inactive
26 | COc1ccc(S(=O)(=O)Nc2ccc3cn[nH]c3c2)cc1C | inconclusive: 23.1 µM [inhibitor, single point]
27 | CCN1CCCC1CN(Cc1cc2ccc(C)cc2[nH]c1=O)C(=S)Nc1ccccc1OC (stereo unspecified) | inconclusive: 14.6 µM [activator, partial curve, poor fit]
28 | O=C1C(=O)N(CCCn2ccnc2)C(c2cccc(Br)c2)/C1=C(\O)c1ccc2c(c1)OCCO2 (stereo unspecified) | inconclusive: 16.4 µM [activator, partial curve]
29 | NC(=O)CCC(NS(=O)(=O)c1ccc(Cl)cc1)C(=O)NCc1ccccc1 (stereo unspecified) | inactive
30 | CC(C)(C)C1CCC(=NNC(=O)CN(c2ccccc2)S(C)(=O)=O)CC1 (stereo unspecified) | inactive
31 | CN(C)Cc1cc(O)c(CN(C)C)cc1O | inactive
32 | O=S(=O)(Nn1c(O)c(C=C2N=c3ccccc3=N2)sc1=S)c1ccccc1 | inconclusive: 6.51 µM [activator, full curve, poor fit]
33 | CCN(CC)C(=O)CSc1nc(O)c(Cc2ccccc2)c(=O)n1-c1ccc(C)cc1 | inactive
34 | O=C(Nc1cccc([N+](=O)[O-])c1)N1CCN(c2ccccc2)CC1 | inconclusive: 20.6 µM [inhibitor, partial curve, poor fit]
35 | Fc1ccccc1Nc1n[nH]c(=S)s1 | inconclusive: 9.2 µM [activator, partial curve]
36 | COc1ccc(OC)c(NC(=O)Cc2nn(C)c(=O)c3ccccc23)c1 | inconclusive: 16.4 µM [inhibitor, partial curve]
37 | Cc1ccc(S(=O)(=O)Cc2csc(N)n2)cc1 | inconclusive: 13 µM [activator, partial curve, poor fit]
38 | N/C(=N\OC(=O)c1cccc2ccccc12)c1ccncc1 | inconclusive: 18.3 µM [activator, single point]
39 | C=CCn1c(N)c(C(=O)NCCC2=CCCCC2)sc1=S | inconclusive: 16.4 µM [activator, partial curve]
40 | CN1CCCN(Cc2nc(-c3cccc(C(F)(F)F)c3)no2)CC1 | inconclusive: 25.9 µM [activator, single point]
41 | COCCNC(=S)N/N=C(\C)c1ccccc1F | inactive
42 | O=C(C1CCCN(S(=O)(=O)c2ccc(Br)cc2)C1)N1CCN(Cc2ccccc2)CC1 (stereo unspecified) | inconclusive: 14.6 µM [inhibitor, partial curve]
43 | COc1ccc(-c2nc(=S)[nH][nH]2)cc1 | inactive
44 | Cc1cc(=O)n2c(n1)NC(Nc1cccc(C)c1C)=NC2c1ccccc1 (stereo unspecified) | inactive
45 | COc1ccc(CC(=O)Nc2ccccc2C(=O)N2CCCC2)cc1 | inactive
46 | O=C(Nc1ccc(F)cc1F)c1cc2nc3c(c(C(F)(F)F)n2n1)CCCC3 | inconclusive: 1.3 µM [activator, full curve]
47 | COC(=O)Nc1ccc(S(=O)(=O)Nc2cccc3ccccc23)cc1 | inconclusive: 18.4 µM [inhibitor, single point]
48 | Cc1cccc(-n2ncc3c2CCCC3NC(=O)c2ccc[n+]([O-])c2)c1C (stereo unspecified) | inconclusive: 6.51 µM [inhibitor, partial curve]

From compound 19 as far as 34, as listed above:
Row | SMILES | Potency
19 | Cc1ccc(CN2CCC(C(=O)Nc3ccc(Oc4cccnc4)cc3)CC2)cc1 | inconclusive: 23.1 µM [inhibitor, partial curve]
20 | CC1(C)C=Cc2cc3ccc(=O)oc3cc2O1 | inconclusive: 23.1 µM [activator, partial curve]
21 | O=C1CC(Cc2ccc(Cl)cc2)C(=O)N1c1ccncc1 (stereo unspecified) | inconclusive: 29.1 µM [activator, partial curve, poor fit]
22 | Cc1ccc(CNC(=O)NCc2ccccc2)cc1 | inconclusive: 29.1 µM [activator, single point]
23 | COC(=O)Nc1nnc(-c2ccco2)s1 | inconclusive: 23.1 µM [activator, single point]
24 | Cc1cc(C)c(-c2csc(NC(=O)C3=COCCO3)n2)cc1C | inconclusive: 18.3 µM [activator, partial curve]
25 | Cc1cc(C(=O)CSc2nnc(-c3ccncc3)n2-c2ccccc2)c(C)n1C | inactive
26 | COc1ccc(S(=O)(=O)Nc2ccc3cn[nH]c3c2)cc1C | inconclusive: 23.1 µM [inhibitor, single point]
27 | CCN1CCCC1CN(Cc1cc2ccc(C)cc2[nH]c1=O)C(=S)Nc1ccccc1OC (stereo unspecified) | inconclusive: 14.6 µM [activator, partial curve, poor fit]
28 | O=C1C(=O)N(CCCn2ccnc2)C(c2cccc(Br)c2)/C1=C(\O)c1ccc2c(c1)OCCO2 (stereo unspecified) | inconclusive: 16.4 µM [activator, partial curve]
29 | NC(=O)CCC(NS(=O)(=O)c1ccc(Cl)cc1)C(=O)NCc1ccccc1 (stereo unspecified) | inactive
30 | CC(C)(C)C1CCC(=NNC(=O)CN(c2ccccc2)S(C)(=O)=O)CC1 (stereo unspecified) | inactive
31 | CN(C)Cc1cc(O)c(CN(C)C)cc1O | inactive
32 | O=S(=O)(Nn1c(O)c(C=C2N=c3ccccc3=N2)sc1=S)c1ccccc1 | inconclusive: 6.51 µM [activator, full curve, poor fit]
33 | CCN(CC)C(=O)CSc1nc(O)c(Cc2ccccc2)c(=O)n1-c1ccc(C)cc1 | inactive
34 | O=C(Nc1cccc([N+](=O)[O-])c1)N1CCN(c2ccccc2)CC1 | inconclusive: 20.6 µM [inhibitor, partial curve, poor fit]

The listing continues:

Row | SMILES | Potency
49 | COC(=O)c1ccccc1NC(=O)Nc1ncccc1C | inactive
50 | O=C1C(=Cc2ccco2)C(=O)c2ccccc21 | inconclusive: 23.1 µM [activator, single point]
51 | Cc1ccc(NC(=O)NC(=O)c2cnccc2C(F)(F)F)c(C)c1 | inactive
52 | CSc1cccc(NC(=S)N(Cc2ccccc2)Cc2ccccn2)c1 | inconclusive: 5.8 µM [inhibitor, single point]
53 | O=C(Nc1ccc(Oc2ccc(C(F)(F)F)cn2)c(Cl)c1)C1CC1 | inconclusive: 29.1 µM [inhibitor, single point]
54 | Cc1cc(N2CCCC2)nc(N2C3CCC2CC(O)(c2ccc(F)cc2)C3)n1 (stereo unspecified) | inactive
55 | CCN(CC)c1ccc(S(=O)(=O)N2CCOCC2)cc1NC(=O)CSc1nncn1C | inactive
56 | CC(=O)N1CCN(CC(=O)Nc2cc([N+](=O)[O-])ccc2Cl)CC1 | inactive
57 | C/C(=N/NC(=O)Cc1ccccc1)c1ccc(C)s1 | inconclusive: 18.4 µM [activator, single point]
58 | Nc1nc(=S)n(-c2ccccc2)[nH]1 | inactive
59 | O=C1C=C(Nc2ccc(Cl)cc2)CC(c2ccccc2)C1 (stereo unspecified) | inconclusive: 5.8 µM [inhibitor, single point]
60 | CSc1ccc(/C=N/N2CCN(C)CC2)cc1 | inconclusive: 18.3 µM [activator, partial curve]
61 | C=C1N(c2ccccc2)C(=O)OC1(C)C | inconclusive: 23.1 µM [activator, partial curve, poor fit]
62 | N#C/C(=C\c1cccc(O)c1)C(=O)N1CCCCC1 | inconclusive: 20.6 µM [activator, single point]
63 | CCSC1=C(C#N)C2(CCCC2)C(C#N)=C(N)N1 | inconclusive: 9.2 µM [inhibitor, partial curve]
64 | COc1cc2cc(CCCOC(=O)c3cc(OC)c(OC)c(OC)c3)oc(=O)c2cc1OC | inconclusive: 23.1 µM [inhibitor, single point]
65 | O=C(NCCc1ccccc1)c1c(O)c2ccccc2[nH]c1=O | inconclusive: 18.3 µM [activator, partial curve]
66 | O=c1/c(=C\c2ccc(F)cc2)sc2n1CCCN=2 | inconclusive: 13 µM [activator, partial curve]
67 | CCCN(C(=O)c1nc2nccc(C)n2n1)c1c(N)n(Cc2ccccc2)c(=O)[nH]c1=O | inactive
68 | COc1ccccc1NC(=O)c1ccc(NC(=O)COC(=O)C2CCCO2)cc1 (stereo unspecified) | inconclusive: 32.6 µM [activator, partial curve, poor fit]
69 | Cc1cc(C=C2C(=O)c3ccccc3C2=O)c(C)n1-c1ccc(Cl)cc1 | inconclusive: 4.61 µM [activator, full curve]
70 | N/C(=N\OC(=O)c1ccc(Cl)cc1)c1cccnc1 | inconclusive: 18.4 µM [activator, partial curve]
71 | CN(C)CCCNc1oc(-c2ccc(Cl)cc2)nc1C#N | inconclusive: 13 µM [activator, partial curve, poor fit]
